In all, about 2,300 compounds were measured (“plate-normalized OD600 growth (mean of duplicates)”: median about 0.29, lowest 2% from about 0.22 on). Some of the results follow.
Test system: Escherichia coli BW25113
Experiment: plate-normalized OD600 growth (mean of duplicates) (OD600 (normalized)); higher = more growth (less inhibition)
Conditions: 10 µM
Experimental: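 E. coli BW25113 in LB (100 µl, 96-well, no shaking) was exposed to 10 µM of each compound from a ~30,000-member library and grown at 37°C for 24 h or 15°C for 48 h, in duplicate. Growth was read as OD600 and the duplicate ODs were normalized across screening plates to correct plate-to-plate variation. Hits were >3σ below the mean OD600 at 15°C and <2σ below the mean at 37°C.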

| SMILES | plate-normalized OD600 growth (temperature: 15°C, 48 h) | plate-normalized OD600 growth (temperature: 37°C, 24 h) |
| --- | --- | --- |
| N#C/C(=C\c1ccc(OC(=O)c2cccc([N+](=O)[O-])c2)cc1)C(=O)c1ccccc1 | 0.211 | 0.634 |
| NNC(=O)c1cnn(-c2ccc(Cl)cc2)c1C(F)(F)F | 0.253 | 0.627 |
| CSc1ccc(/C=C2\N=C(c3ccccc3)N(c3ccc(C(=O)Nc4ccc(Br)cc4)cc3)C2=O)cc1 | 0.257 | 0.649 |
| Cc1ccc(N2CCN(S(=O)(=O)c3cc(C(C)C)ccc3C)CC2)cc1Cl | 0.255 | 0.62 |
| C#CCOc1ccc2ccccc2c1/C=C1\SC(=Nc2ccc(C(=O)O)cc2)NC1=O | 0.248 | 0.64 |
| NC(=O)CCN1CCn2c1nc1ccccc12 | 0.255 | 0.636 |
| O=C(O)c1cccc(S(=O)(=O)Nc2ccc(Cl)cc2)c1 | 0.257 | 0.625 |
| C/C(CC(=O)Nc1ccc(N(C)C)cc1)=N\NC(=O)COc1ccc(C)cc1 | 0.236 | 0.627 |
| COc1ccc(/C=C/C2=CCN(Cc3ccccc3)CC2)cc1 | 0.239 | 0.606 |
| O=[N+]([O-])c1cc(C(F)(F)F)cnc1Br | 0.259 | 0.604 |
| COc1cc2c(cc1OC)C(C)N(S(=O)(=O)c1cn(C)c(C)n1)CC2 (stereo unspecified) | 0.245 | 0.611 |
| CC(=O)c1sc(SCc2ccc(Cl)cc2)c2c1CC(C)(C)CC2=O | 0.231 | 0.652 |
| COc1cccc(C=Nc2ccc(N3CCOCC3)cc2)c1OC(C)C | 0.251 | 0.631 |
| COc1ccccc1N(C(=O)c1ccc(C)cc1)c1nc(C(F)(F)F)c(-c2ccccc2)s1 | 0.238 | 0.639 |
| O=C1NC2CC2N1C(=O)OCc1ccccc1 (stereo unspecified) | 0.223 | 0.618 |
| NC(N)=Nc1nc(-c2cc(Cl)sc2Cl)cs1 | 0.242 | 0.607 |
| COc1ccc(-c2ccnc(SCC(=O)NCCSCc3ccco3)n2)cc1 | 0.246 | 0.61 |
| CCOC(=O)c1ccc(NC(=O)CCC(=O)O)cc1 | 0.256 | 0.611 |
| Cc1ccc(OC(=O)NC2CCC(CC3CCC(NC(=O)Oc4ccc(C)c(C)c4)CC3)CC2)cc1C (stereo unspecified) | 0.219 | 0.611 |
| CN(C)/C=C(\C#N)C(=O)Nc1ccc(F)c(Cl)c1 | 0.236 | 0.602 |
| CN1CCC(=NNC(=O)CCSc2ccc(Cl)cc2)CC1 | 0.254 | 0.609 |
| COc1ccccc1N=C(N)SCc1ccccc1 | 0.236 | 0.606 |
| CC(C)n1c(Sc2nccn2C)nc2c1c(=O)n(C)c(=O)n2C | 0.251 | 0.654 |
| Cn1c(=O)c2c(nc3n2CC(c2ccc([N+](=O)[O-])cc2)=NN3)n(C)c1=O | 0.27 | 0.615 |

An excerpt of these results, in CSV form:
SMILES,"plate-normalized OD600 growth (temperature: 15°C, 48 h)","plate-normalized OD600 growth (temperature: 37°C, 24 h)"
COc1ccccc1N(C(=O)c1ccc(C)cc1)c1nc(C(F)(F)F)c(-c2ccccc2)s1,0.238,0.639
O=C1NC2CC2N1C(=O)OCc1ccccc1 (stereo unspecified),0.223,0.618

Next results follow.

| SMILES | plate-normalized OD600 growth (temperature: 15°C, 48 h) | plate-normalized OD600 growth (temperature: 37°C, 24 h) |
| --- | --- | --- |
| Fc1ccccc1Nc1nc2nonc2nc1N1CCOCC1 | 0.314 | 0.649 |
| CCOC(=O)Cn1c2c(sc1=NC(=O)c1ccc(Cl)cc1)CC(C(C)(C)C)CC2 (stereo unspecified) | 0.239 | 0.616 |
| Nc1cc(-c2ccc(Cl)cc2)nc(N)n1 | 0.228 | 0.59 |
| Cc1cc(=O)oc2c(CN(C)C)c(O)ccc12 | 0.236 | 0.599 |
| COC(=O)c1ccc(OCC(=O)Nc2nc3c(s2)CCCC3)cc1 | 0.246 | 0.62 |
| Cc1cc(O)c(C)c(O)c1/C=N/NC(=O)CNC(=O)c1ccco1 | 0.245 | 0.61 |
| Cc1ccc(/C=N/NC(=O)c2ccccc2N)cc1Br | 0.228 | 0.592 |
| O=C(O)C1c2ccccc2Oc2ccccc21 | 0.221 | 0.606 |
| O=C(N/N=C\c1ccc(-c2ccc(Cl)cc2Cl)o1)/C(=C\c1ccc2c(c1)OCO2)NC(=O)c1ccccc1 | 0.231 | 0.631 |
| Clc1ccc(Sc2ncnc3ccsc23)cc1 | 0.221 | 0.613 |
| CSc1ncc(C#N)c2nc(-c3ccc(N(C)C)cc3)nn12 | 0.241 | 0.625 |
| CCC(=O)N1CCN(c2ccc(NCc3ccccc3)cc2)CC1 | 0.252 | 0.6 |
| O=C(CSc1nc2ccc(N3C(=O)c4cccc5cccc(c45)C3=O)cc2s1)NC1CC1 | 0.246 | 0.604 |
| COC(=O)N1[C@@H](c2ccccc2)N(c2ccc(OC)cc2)[C@H](c2ccccc2)N1C(=O)OC | 0.246 | 0.61 |
| CCOc1ccc(-n2c(-c3ccccc3)cc(C=Nc3ccc4ncccc4c3)c2-c2ccccc2)cc1 | 0.263 | 0.61 |
| Cc1cc(C(O)(C(F)(F)F)C(F)(F)F)cc(C)c1O | 0.249 | 0.618 |
| COC(=O)C1=NN(c2ccccc2Cl)C2(S1)c1ccccc1C(C)=NN2c1ccccc1 (stereo unspecified) | 0.234 | 0.641 |
| Cc1cc(C(=O)O/N=C(\N)CSc2ncccc2C(F)(F)F)no1 | 0.254 | 0.618 |
| Cc1ccc(C(=O)O)c(C(=O)Nc2nc3ccccc3s2)c1 | 0.26 | 0.605 |
| CCOC(=O)c1c(CN2CCN(CCO)CC2)n(C)c2cc(Br)c(OC(C)=O)cc12 | 0.246 | 0.602 |
| Cc1oc(CC(C)C)cc1C(=O)Nc1cccc(C(=O)O)c1 | 0.255 | 0.643 |
| O=C1NN(c2ccccc2)C(=S)Nc2ccccc21 | 0.243 | 0.604 |
| CC(=O)NC1=NC(=O)/C(=C2/C(=O)N(C(C)=O)c3ccccc32)S1 | 0.231 | 0.58 |
| Cc1onc(-c2ccccc2Cl)c1C(=O)NNC(=O)c1ccccc1F | 0.249 | 0.645 |

— the supplement of paper PMC4371806
